Residue numbers refer to the chain shown, from its start. In names and notes the source's numbering stands. These are yes or no findings as the source states them, for the method shown. Binding seen in cells or lysates may run through a third protein. Some results given as binding are weak or reduced against the parent protein; the word gives no strength.
B1: DEP-Venus (domain or fragment, UniProt O14641 418-510)
chain: SVHTDMASVTKAMAAPESGLEVRDRMWLKITIPNAFLGSDVVDWLYHHVEGFPERREARKYASGLLKAGLIRHTVNKITFSEQCYYVFGDLSG
B2: DEP-Venus K446M (domain or fragment, UniProt O14641 418-510)
chain: B1 chain with K29M
B3: DEP-Venus G436P (domain or fragment, UniProt O14641 418-510)
chain: B1 chain with G19P
B4: DEP-Venus L445E (domain or fragment, UniProt O14641 418-510)
chain: B1 chain with L28E

Sequences of proteins named here, by UniProt entry; tags and fusion partners are left off. A change or cut given only in a name is not applied to a line headed by its entry. Residues count along the entry.
UniProt Q13467, 27-585: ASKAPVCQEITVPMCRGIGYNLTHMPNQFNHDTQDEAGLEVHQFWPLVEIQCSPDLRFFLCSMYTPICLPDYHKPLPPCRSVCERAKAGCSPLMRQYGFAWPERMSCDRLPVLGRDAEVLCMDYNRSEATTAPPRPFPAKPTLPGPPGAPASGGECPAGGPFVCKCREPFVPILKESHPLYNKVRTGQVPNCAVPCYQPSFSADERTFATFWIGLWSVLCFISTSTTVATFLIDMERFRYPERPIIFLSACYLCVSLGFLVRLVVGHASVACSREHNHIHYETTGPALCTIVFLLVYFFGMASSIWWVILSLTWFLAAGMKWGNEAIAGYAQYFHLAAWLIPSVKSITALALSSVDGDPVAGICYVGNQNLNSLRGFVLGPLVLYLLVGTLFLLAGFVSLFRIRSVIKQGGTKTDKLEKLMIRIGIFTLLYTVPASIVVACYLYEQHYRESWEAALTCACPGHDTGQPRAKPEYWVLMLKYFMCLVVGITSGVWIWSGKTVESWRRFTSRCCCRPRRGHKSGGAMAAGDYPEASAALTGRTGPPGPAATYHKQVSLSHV

Each binder was assayed against HA-FZD5-Nluc (UniProt Q13467) (assay: FRET or BRET).

binding | Binder
binds | B1
binds | B2
binds | B3
no binding | B4

— paper doi:10.1101/2022.07.19.500578
